Reference: PubChem BioAssay AID504764 (Drosophila RNAi Screening Center, 2011)
The deposit covers about 22,000 reagents; shown is an unselected part of those that have a named target and a result. In the full data, 403 (1.9%) were called active. 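Unnormalised raw counts per well; ratio z-scores behind the hit calls and whether each hit raises or lowers signal are not deposited.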 The record does not give: the amount of reagent.

- Aim: 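Genes whose knock-down alters Notch-dependent transcription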 (primary screen)
- System: Drosophila Kc167 cells
- Reagent: long dsRNA against Drosophila genes
- Time to read-out: about 5 days (4 days dsRNA, then 24 h after transfection)
- Conditions: transfection of constitutively active membrane-tethered Notch lacking the extracellular domain, read 24 h later
- Read-out: 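Firefly luciferase from an E(spl)m3 reporter with active Notch, plus control-promoter and uninduced reporter wells for normalisation; unnormalised counts, duplicate wells a and b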
- Reading the numbers: induced reporter light, run 1, well a and induced reporter light, run 1, well b: higher = more light from the Notch target reporter with active Notch; control promoter light, run 1, well a and control promoter light, run 1, well b: higher = more light from the viral control promoter (cell number, transfection, viability); uninduced reporter light, run 1, well a: higher = more light from the Notch target reporter without active Notch
- Rule for the call: 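Wells with low control signal or poorly matching duplicates excluded; duplicates averaged; per source plate, z beyond ±2 for induced/control log2 ratio or beyond ±1.8 for induced/uninduced marks a hit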
- Meaning of the calls: active = modifier hit (raised or lowered Notch signal); inactive = not a hit

Chd1 gave induced reporter light, run 1, well a = 1.80e5; induced reporter light, run 1, well b = 1.58e5; control promoter light, run 1, well a = 1.47e5; control promoter light, run 1, well b = 1.52e5; uninduced reporter light, run 1, well a = 16525; inactive.
Silencing of CG3483 resulted in: induced reporter light, run 1, well a = 1.54e5; induced reporter light, run 1, well b = 1.58e5; control promoter light, run 1, well a = 1.24e5; control promoter light, run 1, well b = 1.45e5; uninduced reporter light, run 1, well a = 12420; inactive.
asrij showed induced reporter light, run 1, well a = 1.93e5; induced reporter light, run 1, well b = 1.81e5; control promoter light, run 1, well a = 1.85e5; control promoter light, run 1, well b = 1.33e5; uninduced reporter light, run 1, well a = 13490; inactive.
Silencing of Hpr1 resulted in: induced reporter light, run 1, well a = 66300; induced reporter light, run 1, well b = 66455; control promoter light, run 1, well a = 35420; control promoter light, run 1, well b = 33180; uninduced reporter light, run 1, well a = 4540; inactive.
Against CycT, the values are induced reporter light, run 1, well a = 46415; induced reporter light, run 1, well b = 52800; control promoter light, run 1, well a = 31170; control promoter light, run 1, well b = 40555; uninduced reporter light, run 1, well a = 2555; inactive.
Knock-down of AstC-R2 came out at: induced reporter light, run 1, well a = 1.78e5; induced reporter light, run 1, well b = 1.86e5; control promoter light, run 1, well a = 2.77e5; control promoter light, run 1, well b = 1.89e5; uninduced reporter light, run 1, well a = 10880; inactive.
Silencing of betaTub60D resulted in: induced reporter light, run 1, well a = 2.07e5; induced reporter light, run 1, well b = 1.98e5; control promoter light, run 1, well a = 1.98e5; control promoter light, run 1, well b = 1.72e5; uninduced reporter light, run 1, well a = 13555; inactive.

Already shown: entries from further up.
Hpr1 → induced reporter light, run 1, well a: 66300; induced reporter light, run 1, well b: 66455; control promoter light, run 1, well a: 35420; control promoter light, run 1, well b: 33180; uninduced reporter light, run 1, well a: 4540; Outcome: inactive
CycT → induced reporter light, run 1, well a: 46415; induced reporter light, run 1, well b: 52800; control promoter light, run 1, well a: 31170; control promoter light, run 1, well b: 40555; uninduced reporter light, run 1, well a: 2555; Outcome: inactive

Additional reagents follow.
After knock-down of lin-28, the screen gave induced reporter light, run 1, well a = 2.73e5; induced reporter light, run 1, well b = 1.76e5; control promoter light, run 1, well a = 1.98e5; control promoter light, run 1, well b = 1.93e5; uninduced reporter light, run 1, well a = 9790; inactive.
Silencing of moon resulted in: induced reporter light, run 1, well a = 1.10e5; induced reporter light, run 1, well b = 1.37e5; control promoter light, run 1, well a = 2.31e5; control promoter light, run 1, well b = 2.10e5; uninduced reporter light, run 1, well a = 10035; inactive.
Edc3 gave induced reporter light, run 1, well a = 1.31e5; induced reporter light, run 1, well b = 1.26e5; control promoter light, run 1, well a = 59925; control promoter light, run 1, well b = 72785; uninduced reporter light, run 1, well a = 9395; inactive.
For GlnRS, the entry reads induced reporter light, run 1, well a = 41135; induced reporter light, run 1, well b = 29770; control promoter light, run 1, well a = 57795; control promoter light, run 1, well b = 74405; uninduced reporter light, run 1, well a = 2555; inactive.
Polr1A showed induced reporter light, run 1, well a = 1.23e5; induced reporter light, run 1, well b = 91575; control promoter light, run 1, well a = 91715; control promoter light, run 1, well b = 70645; uninduced reporter light, run 1, well a = 5900; active.
